In PubChem BioAssay AID493014 (National Center for Advancing Translational Sciences (NCATS), 2011):
This is one part of the list. The main result of the screen is listed elsewhere. These columns were measured beside it and carry no call. The list favours compounds with an active or inconclusive main result. Potencies come from curve fits of mixed quality, noted in brackets.

Assay: qHTS Assay to Find Inhibitors of Chronic Active B-Cell Receptor Signaling
Settings: ABC-DLBCL IkBa-CBG/CBR reporter, luminescence ratio (green luciferase fused to IkBa over red control in TMD8 lymphoma cells), 4 h
In short: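 Concentration-response series (up to 46 uM) were applied to TMD8 dual-reporter cells for 4 h at 37C with doxycycline. Green/red ratio, after filter-overlap correction, defined %Activity; red signal alone was normalised to basal cells and zero luminescence.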

[1] = measured here: CBR red luminescence, cell number
[2] = measured here: IkBa-CBG green luminescence

SMILES	AC50 [1]	AC50 [2]
Cc1cccc(/C=N/NC(=O)NC2CCCCC2)c1	1.64 µM [rising, partial curve, poor fit]	
CCC1CCC(c2nnc(-c3ccc(Br)cc3)o2)CC1 (stereo not given)	18.4 µM [rising, partial curve]	
COc1cccc(-c2nn(-c3ccccc3)cc2CN(C)Cc2c(C)nc3ccccn23)c1	15.8 µM [falling, partial curve, poor fit]	
COc1ccccc1CNC(=O)CC1Sc2ccccc2NC1=O (stereo not given)	6.31 µM [falling, single point]	
Cn1nnnc1SCc1csc(C2C(C#N)=C(N)OC3=C2C(=O)CCC3)c1 (stereo not given)	4.47 µM [falling, full curve, poor fit]	
CCC1(CC)C(=O)NC(=O)NC1=NCCc1c[nH]c2ccccc12	11.6 µM [falling, single point]	
O=C(N/N=C/c1cn(-c2cccs2)nc1-c1ccccc1)c1ccc(O)cc1	8.2 µM [falling, partial curve]	
CC(C)n1cnc2c(Nc3cccc(Cl)c3)nc(N(CCO)CCCO)nc21	7.08 µM [falling, full curve]	
O=C(NCCC1=CCCCC1)c1cnc2n(c1=O)CCS2	14.6 µM [rising, partial curve, poor fit]	
Cc1ccc2c(N)c(C(=O)c3ccccc3)sc2n1	22.4 µM [falling, single point]	
O=C(NCCN1CCOCC1)c1cc(-c2cccs2)on1	0.184 µM [falling, full curve, poor fit]	
COc1ccccc1CC(=O)NCCCc1ccccc1	12.6 µM [rising, partial curve, poor fit]	
N#Cc1nc(-c2ccccc2F)oc1NCCc1ccccn1	3.98 µM [rising, partial curve, poor fit]	
Cn1ccnc1SCC(=O)c1c(N)n(C)c(=O)n(C)c1=O	8.2 µM [falling, partial curve, poor fit]	
Cc1cc(/C=N/NC(=O)c2c(Br)cnn2C)c(C)n1-c1cccc(Br)c1	29.1 µM [falling, single point]	
COCCCNc1nc2c(-c3cccc(C(F)(F)F)c3)nnn2c2ccccc12	12.6 µM [rising, partial curve]	
Cc1ccc(C(=O)ONc2ccc(N=NC(=O)c3ccccc3O)cc2)cc1	0.103 µM [falling, full curve]	
Brc1ccc(/C=N/Nc2ccccc2)cc1	2.06 µM [rising, partial curve, poor fit]	
Cn1c(N)c(C(=O)CSc2nnc(-c3c[nH]c4ccccc34)n2C2CC2)c(=O)[nH]c1=O	0.103 µM [rising, full curve, poor fit]	
O=C(COc1ccc(Br)cc1Cl)NC(=S)N1CCc2ccccc21	23.1 µM [rising, partial curve, poor fit]	20.6 µM [falling, single point]
CN(C(=O)COC(=O)c1ccc(Cl)cc1N)C1CCCCC1	6.31 µM [rising, full curve]	

SMILES	AC50 [1]	AC50 [2]
S=c1[nH]nc([C@@H]2C[C@H]2c2ccccc2)n1-c1ccccc1	29.1 µM [rising, single point]	
CCOc1ccc(NC(=O)c2sc3nc(N4CCOCC4)c4c(c3c2N)CC(C)(C)OC4)cc1	15.8 µM [rising, partial curve, poor fit]	
Cc1cccc(N2CCN(C(=O)c3cc4c(=O)n(C)c5ccccc5c4n3C)CC2)c1C	2.91 µM [rising, full curve, poor fit]	
O=C(CC(C(=O)O)c1c[nH]c2ccccc12)c1ccccc1 (stereo not given)	7.94 µM [falling, partial curve, poor fit]	
O=C1Nc2ccccc2C12OCCCO2	10 µM [rising, partial curve, poor fit]	
Cc1cc(C(=O)NN=C2CCCC2)c2ccccc2n1	16.4 µM [rising, single point]	29.1 µM [falling, partial curve, poor fit]
CCOC(=O)c1c(C)[nH]c(O)c1C=Nc1ccccc1	2.51 µM [rising, full curve]	
NS(=O)(=O)c1ccc(NC(=S)NCc2ccco2)cc1	4.47 µM [falling, full curve, poor fit]	
CC1=CC(=O)C(C(C)C)=C/C1=C(\c1cc(C(C)C)c(OP(=O)(O)O)cc1C)c1ccccc1C(=O)O	14.1 µM [falling, partial curve, poor fit]	
O=C(COc1ccccc1Br)NCc1ccccn1	0.326 µM [rising, full curve]	
COCC(=O)Nc1nc2ccc(S(C)(=O)=O)cc2s1	7.08 µM [rising, partial curve, poor fit]	
CC(C)(C)OC(=O)N1CCC[C@H]1c1nnc(SCc2ccccc2F)o1	3.55 µM [rising, partial curve, poor fit]	
CC(=O)Nc1ccc(S(=O)(=O)NC2=C(N3CCN(Cc4ccccc4)CC3)C(=O)c3ccccc3C2=O)cc1	3.26 µM [rising, single point]	
O=C1C2CC=CCC2C(=O)N1Cc1nnc(-c2ccc(Cl)cc2)o1 (stereo not given)	8.91 µM [rising, partial curve, poor fit]	
O=C(CCl)Nc1cc(S(=O)(=O)N2CCCCCC2)ccc1Cl		23.1 µM [falling, partial curve, poor fit]
Cc1c(C(=O)NCC(C)C)sc2nc(-c3ccc(F)cc3)cn12	1.84 µM [rising, full curve, poor fit]	
CN(Cc1ccc(F)cc1)S(=O)(=O)c1nnc(NC(=O)c2ccccc2)s1	20 µM [rising, partial curve, poor fit]	
COCCOC(=O)c1c(NC(=O)CNc2ccc(C)c(F)c2)sc(C(N)=O)c1C	3.16 µM [rising, partial curve, poor fit]	
O=C(COc1ccccc1)N/N=C/c1cc2c(cc1[N+](=O)[O-])OCO2	20.6 µM [rising, single point]	
O=C(c1ccc(Cn2cc(Br)cn2)cc1)N1N=C(C(F)F)CC1(O)C(F)F (stereo not given)	7.31 µM [falling, partial curve, poor fit]	
CCOc1nc(OCC)nc(N2CCC(C)CC2)n1		23.1 µM [falling, partial curve, poor fit]

SMILES	AC50 [1]	AC50 [2]
Cc1ccc(C(=O)Nc2cccc(C(=O)NC3CCCC3)c2)cc1	10 µM [falling, partial curve]	
CCOC(=O)c1nc(N)c(=O)n(-c2ccccc2)n1	7.94 µM [falling, partial curve]	
C=CCN(C(=O)CSc1nnnn1C)c1nc(-c2ccccc2)cs1	5.8 µM [rising, partial curve, poor fit]	
CCC(=O)c1ccc(OCCN2CCOCC2)cc1	0.461 µM [falling, partial curve, poor fit]	
O=C(Nc1ccccc1C(=O)NC(Cc1ccccc1)C(=O)O)c1ccccc1 (stereo not given)	28.2 µM [falling, single point]	
Cc1ccc(C)c(NC(=O)c2cnn(-c3ccccc3)c2C)c1	8.91 µM [falling, partial curve, poor fit]	
Cc1cc(C)cc(N/C(N)=N/c2nc(C)cc(C)n2)c1	13 µM [falling, partial curve, poor fit]	
C#CCOCCOCCOCCNc1nc(N2CCN(C(=O)[C@H](CCC(=O)O)n3cc([C@@H](N)[C@H](C)CC)nn3)CC2)nc(N2CCN(C(=O)[C@H](CCC(=O)O)n3cc([C@@H](N)CCSC)nn3)CC2)n1	6.51 µM [rising, single point]	
N#CCCN1CCN(C(=S)c2ccc(-c3ccc(Cl)cc3)o2)CC1	0.326 µM [rising, full curve, poor fit]	
O=C(OCCNc1ncc(C(F)(F)F)cc1Cl)c1ccc(S(=O)(=O)N2CCOCC2)cc1	11.2 µM [rising, partial curve]	
Cc1ccc(-c2ccccc2NC(=O)CCl)o1	8.91 µM [falling, partial curve]	
CS/C(N)=N/N=C/c1ccc([N+](=O)[O-])cc1	35.5 µM [falling, single point]	
Cc1ccc(-c2n[nH]c(=S)n2/N=C/c2cccs2)cc1	0.651 µM [falling, partial curve, poor fit]	
CCOC(=O)N1CCN(C(=O)c2cc3c(s2)-c2ccc(Cl)cc2S(=O)(=O)C3)CC1	35.5 µM [falling, single point]	
CCn1c2ccccc2c2cc(NC(=O)C/C(C)=N/NC(=O)c3ccccc3N)ccc21	12.6 µM [falling, partial curve, poor fit]	
O=C(Cc1c(F)cccc1Cl)N1CCOCC1	6.31 µM [rising, partial curve, poor fit]	
COc1cccc(CN2CCN(Cc3[nH]c4ccccc4c3C)CC2CCO)c1 (stereo not given)	7.94 µM [falling, partial curve]	
O=C(COC(=O)Cc1ccsc1)Nc1ccc(Br)cc1F	0.0058 µM [rising, full curve, poor fit]	
COc1ccc(C(=O)OCCc2cc3ccccc3c(=O)o2)cc1	25.9 µM [falling, single point]	
Cc1ccc(S(=O)(=O)C(CNC(=O)C(=O)NCCc2ccc(Cl)cc2)c2cccs2)cc1 (stereo not given)	0.1 µM [rising, full curve, poor fit]	
CCOC(=O)Cn1c(=O)oc2cc(S(=O)(=O)N3CCN(C(=O)c4ccco4)CC3)ccc21	29.1 µM [rising, single point]	

At a glance, 4 of the compounds above.
SMILES	AC50 [1]	AC50 [2]
CCOC(=O)c1nc(N)c(=O)n(-c2ccccc2)n1	7.94 µM [falling, partial curve]	
C=CCN(C(=O)CSc1nnnn1C)c1nc(-c2ccccc2)cs1	5.8 µM [rising, partial curve, poor fit]	
CCC(=O)c1ccc(OCCN2CCOCC2)cc1	0.461 µM [falling, partial curve, poor fit]	
O=C(Nc1ccccc1C(=O)NC(Cc1ccccc1)C(=O)O)c1ccccc1 (stereo not given)	28.2 µM [falling, single point]	
